# Results: PubChem BioAssay AID1347076 (National Center for Advancing Translational Sciences (NCATS), 2019)
# Among all 400,000 compounds or so, about 13,000 (3.2%) were called active. Inconclusive results, whose numbers are uncertain, are shown with a selection of clear calls. Calls come from the whole dose curve; as a rule, active = well fitted cell-killing curve with a large enough effect; inconclusive = small, poorly fitted or top-dose-only effect, or effect the other way; inactive = flat fitted curve, though single readings scatter. Potencies beside an inconclusive call are fits to weak or partial responses and may not hold up.
# Experiment: qHTS assay for MDR1-selective chemotherapeutics: Primary screen using the drug-selected MDR subline cells KB-V1; note: nearly all actives have a fitted effect of over 60% in size
# Conditions: KB-V1 MDR cells viability, CellTiter-Glo, 72 h; activity change, negative = cytotoxicity: at 46.1 µM (top of the series)
# Summary of the method: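 Cytotoxicity toward P-gp-expressing KB-V1 cells was determined as loss of CellTiter-Glo luminescence after 72 h at 37 degrees C. Compounds were tested in quantitative HTS format across a concentration range, with curves fitted to normalized data.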
# % is set by controls: 0 for no effect and ±100 for the full control effect; potency is the fitted concentration of half-maximal effect.
Structure (SMILES),Potency,"activity change, negative = cytotoxicity"
COc1cccc(NC(=O)C2CCCN2S(=O)(=O)c2ccc3nc(-c4ccccc4)[nH]c3c2)c1 (centres undefined),"inconclusive: 18.4 µM [cytotoxic, single point]",–
CSc1ccc(/C=C2\C=Cc3cc([N+](=O)[O-])ccc32)cc1,inactive,–
CN(CC(=O)NC1CCCC1)S(=O)(=O)c1cnc[nH]1,"inconclusive: 23.1 µM [rising, single point]",–
O=C(Nc1sc2c(c1C(=O)NCC(O)CO)CCCC2)c1ccccc1 (centres undefined),–,inconclusive: 1.57%
CN1CCc2c(sc(NC(=O)c3ccco3)c2C(N)=O)C1,inactive,–
O=C(Cn1cc(S(=O)(=O)N2CCN(c3ccccc3F)CC2)c2ccccc2c1=O)Nc1ccc(F)cc1Cl,inactive,–
Cc1ccc(C(=O)O/N=C/c2c(C(F)(F)F)nn(C)c2Sc2ccc(Cl)cc2)cc1,"inconclusive: 16.4 µM [cytotoxic, single point]",–
O=C(NCCc1ccccc1)C(=S)N1CCCCC1,inactive,–
CC(C)(C)OC(=O)C[C@H]1C/C=C\C[C@H](CC(=O)N(CCO)Cc2ccccc2)C(=O)N[C@@H](c2ccccc2)COC1=O,inactive,–
OCCN(CCO)CC(O)COc1ccc(C23CC4CC(CC(C4)C2)C3)cc1 (centres undefined),"inconclusive: 2.91 µM [cytotoxic, partial curve, poor fit]",–
CCOC(=O)[C@H]1[C@H]2COc3ccc(Br)cc3[C@@H]2N2C(=O)CN(Cc3ccccc3)C(=O)[C@@]12C,inactive,–
CNC(=S)Nc1ccc2nc(C)oc2c1,"inconclusive: 13 µM [rising, partial curve, poor fit]",–
CNC(=O)c1c(NC(=O)C2=COCCO2)sc2c1CCCC2,"inconclusive: 20.6 µM [cytotoxic, partial curve]",–
COC(=O)c1c(-c2ccsc2)sc2ccc(-c3cc(OC)c(OC)c(OC)c3)cc12,inactive,–
COc1cc(OC)cc(C(=O)OCC(=O)Nc2nnc(-c3ccccc3)o2)c1,"inconclusive: 25.9 µM [cytotoxic, single point]",–
CCN(C(=O)CSc1ccccn1)C1CCCCC1,"inconclusive: 18.4 µM [cytotoxic, partial curve, poor fit]",–
COc1ccc(C2=Nc3ccccc3N(C(=O)c3ccc(C)cc3)C2C(=O)NCc2ccccc2)cc1 (centres undefined),"inconclusive: 7.31 µM [cytotoxic, partial curve, poor fit]",–
COc1cc2c(cc1OC)C(NC(=O)C(F)(F)F)C/C2=N\O (centres undefined),"inconclusive: 25.9 µM [rising, single point]",–
CNC(=O)c1ccc(Nc2nnc(-c3ccc(C)c(S(=O)(=O)NCC4CCCO4)c3)c3ccccc23)cc1 (centres undefined),"inconclusive: 13 µM [rising, partial curve]",–
CCCOc1ccc(-c2cccc(NS(=O)(=O)c3ccc(CC)cc3)c2)nn1,"inconclusive: 5.17 µM [cytotoxic, full curve]",–
COc1ccc(-c2nnc(SCC(=O)Nc3ccc4c(c3)OCCO4)n2N)cc1OC,inactive,–
CCC(C)NC(=O)CCC(=O)NNc1nc2ccccc2c2nc(C)nn12 (centres undefined),"inconclusive: 0.0366 µM [rising, partial curve, poor fit]",–
CCOC(=O)c1ccc2nc(C)c(CC)c(Cl)c2c1,"inconclusive: 6.51 µM [cytotoxic, partial curve]",–

Structure (SMILES),Potency,"activity change, negative = cytotoxicity"
COc1ccc(CN2C3CCCC2CC(NC(=O)Nc2ccccc2C)C3)cc1 (centres undefined),"inconclusive: 14.6 µM [cytotoxic, partial curve]",–
O=C(CN1C(=O)NC2(CCCC2)C1=O)Nc1cc(Cl)ccc1Oc1ccccc1,"inconclusive: 8.2 µM [cytotoxic, partial curve, poor fit]",–
CCCCNC(=O)CSc1nc2cc(OC)c(OC)cc2c(=O)n1Cc1ccc(OC)cc1,active: 2.06 µM,–
Cc1cc(C)c(NC(=O)CN(C)S(=O)(=O)c2ccc3c(c2)c(=O)n(C)c(=O)n3C)c(C)c1,"inconclusive: 0.411 µM [rising, full curve]",–
NC(=O)COC(=O)[C@H](Cc1c[nH]c2ccccc12)NC(=O)c1ccc(F)cc1,inactive,–
CN(C)S(=O)(=O)c1ccc(SCC(=O)Nc2ccc3c(c2)OCCO3)nc1,inactive,–
CC(C)[C@H](NC(=O)OC(C)(C)C)c1cc(C(=O)N(C)CCN(C)C)c(N)s1,inactive,–
c1cnc(N2CCN(Cc3ccc4c(c3)OCO4)CC2)nc1,"inconclusive: 29.1 µM [cytotoxic, single point]",–
Cc1ccc2nc(NC(=O)c3ccc(OCC4CCCO4)cc3)sc2c1 (centres undefined),"inconclusive: 2.31 µM [cytotoxic, full curve]",–
CC1(C(=O)NS(=O)(=O)c2cccc(F)c2)CCN1C(=O)Cc1cc(F)ccc1F (centres undefined),inactive,–
CCc1ccccc1NC(=O)c1cccc(N2C(=O)C3C4CCC(C4)C3C2=O)c1 (centres undefined),inactive,–
CCS(=O)(=O)c1nc(S(=O)(=O)c2ccc(C)cc2)c(N2CCOCC2)s1,"inconclusive: 3.66 µM [cytotoxic, full curve, poor fit]",–
C/C(=N/NC(=O)c1ccoc1C)c1ccc(NC(=O)c2ccncc2)cc1,"inconclusive: 29.1 µM [cytotoxic, single point]",–
CC1(C)CC(=O)C2=C(C1)N(c1ccc(Cl)cc1)C(=O)C2(O)C(F)(F)F (centres undefined),"inconclusive: 16.4 µM [cytotoxic, single point]",–
CCOc1ccc(NS(=O)(=O)c2ccc(NS(=O)(=O)c3ccccc3)cc2)cc1,inactive,–
O=C(Nc1ccc(F)cc1F)N1CCc2c(sc3c2CCCC3)C1c1ccc(F)cc1 (centres undefined),"inconclusive: 20.6 µM [cytotoxic, single point]",–
C[C@H]1CN([C@@H](C)CO)C(=O)CCCn2cc(nn2)CO[C@@H]1CN(C)C(=O)Nc1ccccc1,inactive,–
Cc1ccc(C2=NS(=O)(=O)N(C)C(C(=O)NCc3cccs3)=C2)cc1,inactive,–
CCN(CC)CCOC(=O)c1ccc(NC(=O)c2cc3cccc(OC)c3oc2=O)cc1,"inconclusive: 14.6 µM [rising, partial curve, poor fit]",–
CN1CCN(c2ccc(-c3ccc4ccccc4n3)cc2)CC1,active: 11.6 µM,–
Cn1c(=O)c2c(n3c4ccccc4nc13)NC(=O)CC2c1cccc(Cl)c1 (centres undefined),inactive,–
CC1c2ccccc2-c2ccccc2N1C (centres undefined),inactive,–
Cc1nn(CC(=O)N(CC(C)C)C2CCS(=O)(=O)C2)c(C)c1[N+](=O)[O-] (centres undefined),inactive,–

Structure (SMILES),Potency,"activity change, negative = cytotoxicity"
COC(=O)c1ccc(N2CCN(C(=O)c3ccccc3)CC2)c(NC(C)=O)c1,inactive,–
CCOC(=O)c1c(NC(=O)CSc2cn(CCNC(=O)c3c(F)cccc3F)c3ccccc23)sc2c1CCCC2,inactive,–
COc1ccc(C2=Cc3ccccc3C(CC(=O)C3CC3)N2c2ccc(C#CCCO)cc2)cc1 (centres undefined),"inconclusive: 10.3 µM [cytotoxic, partial curve, poor fit]",–
Cc1cc(F)ccc1NC(=O)c1ccc(NS(=O)(=O)c2cc(C(C)(C)C)ccc2C)cc1,"inconclusive: 29.1 µM [cytotoxic, single point]",–
CCN(C(=O)COC(=O)/C=C/c1ccc(OC)c(OC)c1)c1c(N)n(Cc2ccccc2)c(=O)[nH]c1=O,"inconclusive: 29.1 µM [rising, single point]",–
Cc1ccc(-c2cc(C(=O)Nc3c(C(=O)c4ccc(C)c(F)c4)oc4ccccc34)no2)cc1,"inconclusive: 4.11 µM [rising, full curve, poor fit]",–
O=C(NCC(c1ccco1)N1CCCCC1)c1ccc([N+](=O)[O-])s1 (centres undefined),"inconclusive: 23.1 µM [cytotoxic, single point]",–
Cc1ccc(C)c(N2CCN(C(=O)C3CCCN(S(=O)(=O)c4cccc5nonc45)C3)CC2)c1 (centres undefined),inactive,–
CC(C)Cc1ccc(C2=CSC3=NCCN23)cc1,"inconclusive: 23.1 µM [cytotoxic, partial curve, poor fit]",–
C[C@](N)(Cc1ccc(O)c(O)c1)C(=O)O,inactive,–
O=C(NC1CC2CCCC(C1)N2CC(=O)N1CCCc2ccccc21)C1CCCCC1 (centres undefined),inactive,–
Cn1c(SCC(=O)NC2CC2)nnc1-c1ccccc1,"inconclusive: 23.1 µM [rising, single point]",–
N#Cc1ccc(-c2ccccc2)nc1SCC(=O)c1cc2ccccc2oc1=O,inactive,–
O=C(Cc1ccc(Cl)cc1)Nc1ccc2oc(=O)ccc2c1,inactive,–
c1cc(-c2nsc(-c3ccncc3)n2)ccn1,"inconclusive: 18.4 µM [cytotoxic, single point]",–
Cc1ccc(Cl)cc1N1CCN(S(=O)(=O)c2ccc(-c3cnc(C4CC4)o3)cc2)CC1,"inconclusive: 23.1 µM [cytotoxic, partial curve, poor fit]",–
O=C(Cc1ccc(NC(=O)C2CCCN(C(=O)C3CCCCC3)C2)cc1)Nc1ccc(C(=O)N2CCOCC2)cc1 (centres undefined),inactive,–
COc1ccc(S(=O)(=O)NCCc2sc(-c3ccccc3)nc2C)cc1F,"inconclusive: 8.2 µM [cytotoxic, partial curve]",–
CN(CCC#N)C(=O)COC(=O)c1c2c(nc3ccccc13)/C(=C/c1ccco1)CC2,"inconclusive: 1.46 µM [cytotoxic, full curve, poor fit]",–
CC(C)n1nnnc1C1c2ccccc2C(=O)N1CCc1c[nH]c2ccccc12 (centres undefined),"inconclusive: 13 µM [cytotoxic, partial curve, poor fit]",–
CCOc1ccc2nc(NC(=O)c3ccoc3C)sc2c1,active: 8.2 µM,–
C1=Nc2c(Nc3ccccc3)ncnc2Oc2ccccc21,"inconclusive: 13 µM [cytotoxic, partial curve]",–
COc1ccc(CCC(=O)Nc2ccc(S(=O)(=O)N3CCOCC3)cc2)cc1OC,inactive,–

# An excerpt from above in order of SMILES length, largest number first:
Structure (SMILES),Potency,"activity change, negative = cytotoxicity"
OCCN(CCO)CC(O)COc1ccc(C23CC4CC(CC(C4)C2)C3)cc1 (centres undefined),"inconclusive: 2.91 µM [cytotoxic, partial curve, poor fit]",–
O=C(NCCc1ccccc1)C(=S)N1CCCCC1,inactive,–
CCN(C(=O)CSc1ccccn1)C1CCCCC1,"inconclusive: 18.4 µM [cytotoxic, partial curve, poor fit]",–
